According to PMC3604124:
No constants are given. Whether binding was seen depends on the method and setting. For part of these data: In cells and extracts the contact can be indirect. Some results given as binding are weak or reduced against the parent protein; the word gives no strength. For part of these data: Tags and fused reporters may be left off the sequences shown.

Sequences of proteins named here, by UniProt entry; tags and fusion partners are left off. A change or cut given only in a name is not applied to a line headed by its entry.
UniProt P04406: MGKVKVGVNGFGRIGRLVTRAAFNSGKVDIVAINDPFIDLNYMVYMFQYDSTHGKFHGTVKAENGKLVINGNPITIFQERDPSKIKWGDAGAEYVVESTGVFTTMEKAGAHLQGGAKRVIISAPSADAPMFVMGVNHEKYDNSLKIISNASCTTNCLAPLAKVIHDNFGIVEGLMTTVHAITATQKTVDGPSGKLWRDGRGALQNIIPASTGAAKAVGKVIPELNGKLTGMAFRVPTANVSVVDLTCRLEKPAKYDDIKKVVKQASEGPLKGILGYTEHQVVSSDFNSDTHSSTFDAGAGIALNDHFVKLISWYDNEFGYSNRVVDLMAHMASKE

Key:
Myc-tagged Mst1 = Myc-tagged Mst1 (UniProt Q13043); assay: co-IP; HEK293T cells co-transfected with tagged Mst1 and GAPDH constructs; lysis in 1% Nonidet P-40, 150 mmol/L NaCl, 50 mmol/L Tris pH 8, 100 umol/L EDTA; precipitation with anti-FLAG or anti-Myc antibody, blots with anti-Myc and anti-FLAG; in one panel cells treated with etoposide or TNF for 6 hrs (interaction increased)
[1] = target: T1, Myc-Mst1 N-terminal kinase domain (deletion mutant in pCS26MT, 6x Myc tag) (UniProt Q13043); assay: as above
T1 sequence: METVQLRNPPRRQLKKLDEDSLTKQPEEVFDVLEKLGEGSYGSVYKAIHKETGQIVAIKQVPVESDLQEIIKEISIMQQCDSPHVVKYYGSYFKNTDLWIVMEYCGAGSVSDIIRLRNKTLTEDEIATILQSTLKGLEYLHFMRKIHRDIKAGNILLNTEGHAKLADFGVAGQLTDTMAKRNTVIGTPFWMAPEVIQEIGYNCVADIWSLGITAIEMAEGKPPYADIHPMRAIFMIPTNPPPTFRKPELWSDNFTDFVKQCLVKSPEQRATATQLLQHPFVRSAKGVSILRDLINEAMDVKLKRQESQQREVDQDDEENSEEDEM

[2] = target: T2, human dominant-negative Mst1 (K59R), yeast two-hybrid bait (human) (UniProt Q13043); assay: two-hybrid; … GAL4 yeast 2-hybrid system 3 in AH109 yeast; human DN-Mst1 (K59R) as bait, human heart cDNA library as prey; selection medium and beta-galactosidase filter assays
T2 sequence: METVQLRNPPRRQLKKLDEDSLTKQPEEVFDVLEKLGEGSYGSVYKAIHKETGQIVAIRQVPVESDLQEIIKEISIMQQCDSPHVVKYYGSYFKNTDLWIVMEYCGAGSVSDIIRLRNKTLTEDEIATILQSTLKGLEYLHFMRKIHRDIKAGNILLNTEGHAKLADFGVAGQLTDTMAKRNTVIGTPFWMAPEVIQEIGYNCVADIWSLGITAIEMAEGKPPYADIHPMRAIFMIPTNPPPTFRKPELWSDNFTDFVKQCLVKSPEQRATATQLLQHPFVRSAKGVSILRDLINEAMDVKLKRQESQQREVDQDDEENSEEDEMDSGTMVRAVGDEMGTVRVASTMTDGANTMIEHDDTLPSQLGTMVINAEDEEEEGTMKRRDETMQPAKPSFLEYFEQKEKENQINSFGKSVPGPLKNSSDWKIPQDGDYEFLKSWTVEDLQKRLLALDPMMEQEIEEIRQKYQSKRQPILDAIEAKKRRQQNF

binding (Myc-tagged Mst1)	binding [1]	binding [2]	Substance
binds	binds	–	FLAG-tagged GAPDH (from UniProt P04406 1-335) (enzyme)
–	–	binds	C-terminal domain (aa 164-335) of GAPDH, two-hybrid library clone (from UniProt P04406 164-335) (domain or fragment)
